Results are given in words; binding and its absence hold for the method and conditions named.
Target: T1, Sulfolobus acidocaldarius FlaI (Sulfolobus acidocaldarius), Q4J9L0
T1 chain: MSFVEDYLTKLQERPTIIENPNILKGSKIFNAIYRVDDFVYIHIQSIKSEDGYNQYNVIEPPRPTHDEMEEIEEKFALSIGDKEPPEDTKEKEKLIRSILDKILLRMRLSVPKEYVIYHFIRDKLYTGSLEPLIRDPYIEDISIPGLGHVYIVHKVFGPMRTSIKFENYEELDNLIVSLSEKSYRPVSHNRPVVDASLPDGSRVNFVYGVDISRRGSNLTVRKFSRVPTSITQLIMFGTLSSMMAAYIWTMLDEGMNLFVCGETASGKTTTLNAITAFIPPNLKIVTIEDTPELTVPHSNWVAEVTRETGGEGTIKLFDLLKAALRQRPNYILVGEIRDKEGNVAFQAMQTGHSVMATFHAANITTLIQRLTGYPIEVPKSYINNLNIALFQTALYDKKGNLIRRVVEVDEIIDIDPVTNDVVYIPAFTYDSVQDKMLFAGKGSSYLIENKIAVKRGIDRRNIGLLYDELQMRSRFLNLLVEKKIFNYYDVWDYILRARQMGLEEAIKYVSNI
Assay: SEC; Superdex 200 10/300 GL; 500 µl of protein at 1 mg/ml; 20 mM Tris HCl pH 8.0, 150 mM NaCl; no nucleotide added; fractions on SDS-PAGE; both purified
Details: remark: other sources report otherwise

binding: no binding
B1: Sulfolobus acidocaldarius FlaI, Q4J9L0 1-513 (enzyme)
chain: T1 chain

— publication PMC6011876, “Characterization of the ATPase FlaI of the motor complex of the Pyrococcus furiosus archaellum and its interactions between the ATP-binding protein FlaH” (PeerJ, 2018)
